The text below walks through data of the supplement of paper PMC8497498.

Molecules are shown by their SMILES. The list shows a part of the results. The data scatter; read single values as rough.

What all share (conditions): 10 µM
For assay [1], the system named is Plasmodium vivax liver stage (primary human hepatocyte culture). The assay can be described thus: hypnozoite quantity inhibition (% inhibition); higher = more active against hypnozoites.
Assay [2] has the same test system. The assay can be described thus: schizont net growth area inhibition (% inhibition); higher = more active against liver schizonts.
Assay [3] has as its system primary human hepatocytes. In words: hepatic nuclei reduction relative to DMSO (100 - % of negative control); higher = more toxic to hepatocytes.
Where [4] appears, read: assay mode: Prophylactic (treated before or shortly after infection), fixed day 6 post-infection.
The mark [5] stands for this setting: assay mode: Radical Cure (treated from day 5 post-infection for 3 days), fixed day 8 post-infection.

With `O=C(Nc1ccc(CN2CCOCC2)cc1)c1ccc(-c2ccc(Br)cc2)o1`, the hypnozoite quantity inhibition in assay [1] (setting [4]) was -6.3; in assay [1] (setting [5]) it was 23.7. Moreover, the “schizont net growth area inhibition” value in assay [2] (setting [4]) is -3.3; in assay [2] (setting [5]) it was -80.5. The figures for the hepatic nuclei reduction in assay [3] (setting [4]) and in assay [3] (setting [5]) were -3% and -7%, respectively.

For `COc1cc(C(=O)Nc2nc3c(cc4c5c(cccc53)CC4)s2)cc(OC)c1OC`, the hypnozoite quantity inhibition in assay [1] (setting [4]) is -45.9; in assay [1] (setting [5]), 35.9. Besides, the “schizont net growth area inhibition” value in assay [2] (setting [4]) came to 25.9; in assay [2] (setting [5]) it was 66.7. Also, the hepatic nuclei reduction in assay [3] (setting [4]) is 3%; in assay [3] (setting [5]) it was -1%.

On to `COC(=O)c1ccc(C2C3=C(O)CC(c4ccc(F)cc4)CC3=Nc3ccccc3N2C(=O)c2ccccc2)cc1` (stereo not drawn), for which the hypnozoite quantity inhibition in assay [1] (setting [4]) was 84.2; in assay [1] (setting [5]), -7.6. Further, the “schizont net growth area inhibition” value in assay [2] (setting [4]) worked out at 90.5; in assay [2] (setting [5]), 28.4. In addition, the values for the hepatic nuclei reduction in assay [3] (setting [4]) and in assay [3] (setting [5]) were -7% and 5%, respectively.
